No constants are given. Whether binding was seen depends on the method and setting. Binding seen in cells or lysates may run through a third protein. A result given as binding can be weak or reduced; the word gives no strength. Sequences can lack the tags named with a protein.

In publication PMC10047546 one finds binding data, which are given here for one molecule.

The assay deals with T1, claudin-like apicomplexan microneme protein (CLAMP) fused to a 3xFlag tag (P. berghei).
T1 sequence: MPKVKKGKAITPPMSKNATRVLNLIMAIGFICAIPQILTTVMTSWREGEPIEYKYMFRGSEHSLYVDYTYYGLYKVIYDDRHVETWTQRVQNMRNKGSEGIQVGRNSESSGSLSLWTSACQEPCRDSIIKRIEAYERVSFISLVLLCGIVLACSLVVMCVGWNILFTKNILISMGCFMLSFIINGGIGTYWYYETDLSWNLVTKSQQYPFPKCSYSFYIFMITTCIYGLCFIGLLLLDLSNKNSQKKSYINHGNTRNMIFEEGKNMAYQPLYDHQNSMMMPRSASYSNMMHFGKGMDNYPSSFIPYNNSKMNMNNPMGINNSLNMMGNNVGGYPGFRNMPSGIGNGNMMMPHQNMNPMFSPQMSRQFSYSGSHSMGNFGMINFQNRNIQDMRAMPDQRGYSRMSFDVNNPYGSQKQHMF
Kind of assay: co-IP; anti-Flag IP from additional, independently prepared CLAMP-flag (untreated clampcKO) and control untagged sporozoite lysates, western blotting with anti-TRAP antibodies. On the technique in general: Immunoblotting shows a protein as a band on a membrane.

B1: thrombospondin-related anonymous protein (TRAP, PBANKA_1349800) (protein, UniProt A0A509AST0 25-606)
chain: QEILDEIKYSEEVCNEQIDLHILLDGSGSIGHSNWISHVIPMLTTLVDNLNISRDEINISMTLFSTYARELVRLKRYGSTSKASLRFIIAQLQNNYSPHGTTNLTSALLNVDNLIQKKMNRPNAIQLVIILTDGIPNNLKKSTTVVNQLKKKDVNVAIIGVGAGVNNMFNRILVGCGKLGPCPYYSYGSWDQAQTMIKPFLSKVCQEVEKVALCGKWEEWSECSTTCDNGTKIRKRKVLHPNCAGEMTAPCKVRDCPPKPVAPPVIPIKVPDVPVKPVEPIEPAEPAEPAEPAEPAEPAEPAEPAEPAEPAEPAEPAEPAEPAEPAEPAEPAEPAEPAEPAKPAEPAEPAEPAEPAEPVNPDNPILPIKPEEPSGGAEPLNPEVENPFIIPDEPIEPIIAPGAVPDKPIIPEESNELPNNLPESPSDSQVEYPRPNDNGDNSNNTINSNKNIPNKHVPPTDDNPYKGQEERIPKPHRSNDEYIYYNNANNNDKLEPEIPSKDYEENKSKKQSKSNNGYKIAGGIIGGLAIIGCIGVGYNFIAGSSAAAMAGEAAPFEDVMADDEKGIVENEQFKLPEDNDWN
B1: the binding entry is recorded as “binds”.
